# Laboratory results as given in PubChem BioAssay AID624291 (National Center for Advancing Translational Sciences (NCATS), 2012).
# Among all 350,000 compounds or so, about 220 (0.063%) were called active. Inconclusive means that the source gave no clear call. Such entries were picked first, then a sample of the others. Calls follow the shape of the dose curve; as a rule, active = well fitted activation curve with a large enough effect; inconclusive = small, poorly fitted or top-dose-only effect; inactive = no such curve, though single readings can be large or run the other way. Potencies of inconclusive entries are doubtful fits and often do not repeat.
# Assay: qHTS for Activators of Integrin-Mediated Alleviation for Muscular Dystrophy; also: nearly all actives have a fitted effect of over 60% in size
# Details: alpha7betagal myoblasts, beta-gal FDG fluorescence, 48 h; series mostly up to 38.3 µM
# In short: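 Alpha7betagal+/- myoblasts (passage 13) were plated 16-24 hr, then exposed to compounds (1:260 dilution of DMSO stock) for 48 hours at 37C. After MPER lysis, β-galactosidase reporter activity was read as FDG fluorescence (ex 480/em 540) after 30 minutes.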
# Potency is read from the fitted curve at half-maximal effect.
row,Compound,Potency
1,CCOC(=O)c1ccc(NC(=O)CSc2nc(N3CCOCC3)nc(N3CCOCC3)n2)cc1,"inconclusive: 3.16 µM [activator, single point]"
2,Cc1nc(C(F)(F)F)ccc1C(=O)NN1CCOCC1,"inconclusive: 1.58 µM [activator, partial curve, poor fit]"
3,CCN(CC)C(=O)CSc1nc(C)cc(-c2cccs2)c1C#N,inactive
4,CCOc1ccccc1NC(=O)c1cccc(N2C(=O)CCC2=O)c1,"inconclusive: 5.01 µM [activator, single point]"
5,COc1ccc(NC(=O)COc2cccnc2[N+](=O)[O-])cc1OC,inactive
6,CC(C)(C)NC(=O)C1CCC(CNc2c(N3CCCCC3)c(=O)c2=O)CC1 (configuration not stated),"inconclusive: 0.355 µM [activator, full curve, poor fit]"
7,COc1ccc2[nH]c3c(=O)n(Cc4ccc(C(=O)N5CCCC5)cc4)c(=S)[nH]c3c2c1,"inconclusive: 28.2 µM [activator, single point]"
8,O=c1oc2ccccc2c(NC2CCCCC2)c1NS(=O)(=O)c1ccc(Br)cc1,"inconclusive: 20 µM [activator, partial curve, poor fit]"
9,COc1ccc(-n2c(SCC(=O)Nc3cccc(C(=O)O)c3)nnc2-c2ccco2)cc1,"inconclusive: 11.2 µM [activator, partial curve]"
10,Cc1cccc(-c2onc3ccc(C(=O)/C=C/N(C)C)cc23)c1,"inconclusive: 2.82 µM [activator, single point]"
11,C/C(=N\Nc1ccccn1)c1ccc(C(C)C)cc1,"inconclusive: 2.51 µM [activator, single point]"
12,CCOC(=O)C(Cc1ccccc1)C(=O)NCc1cccnc1 (configuration not stated),"inconclusive: 28.2 µM [activator, single point]"
13,CCN(CC)S(=O)(=O)c1ccc(Cl)c(NC(=O)CSc2nnc(-c3cccs3)o2)c1,"inconclusive: 12.6 µM [activator, single point]"
14,O=C(Cc1ccc([N+](=O)[O-])cc1)Oc1ccccc1,"inconclusive: 3.98 µM [activator, partial curve]"
15,CC(C)OCCCNC(=S)N1CCC(C(=O)c2ccc(Cl)cc2)CC1,inactive
16,Cn1c(=O)c(C(=O)NNC(=O)c2ccccc2Cl)c(O)c2ccccc21,"inconclusive: 5.01 µM [activator, single point]"
17,N/C(=N\c1nc2ccccc2o1)NC(=O)c1ccccc1Br,"inconclusive: 4.47 µM [activator, single point]"
18,COc1ccc(CCNC(=S)NC2CCN(Cc3ccccc3)CC2)cc1,"inconclusive: 1.12 µM [activator, partial curve, poor fit]"
19,CCOC(=O)c1sc2nc(C)nc(NCCc3ccc(S(N)(=O)=O)cc3)c2c1C,"inconclusive: 0.501 µM [activator, full curve, poor fit]"
20,CC(=O)/C(N=Nc1ccc(SC(F)F)cc1)=C(\C)O,"inconclusive: 0.891 µM [activator, full curve, poor fit]"
21,O=C(CCc1nc2ccccc2n1-c1ccccc1)NCCO,inactive
22,O=C1CCCC(O)=C1C=NCc1ccccc1,"inconclusive: 5.62 µM [activator, single point]"
23,CCOC(=O)c1cnc2c(-c3ccccc3)cnn2c1C,"inconclusive: 2.82 µM [activator, single point]"
24,CN1CCC(Oc2ccc(Sc3ccccc3)cc2)CC1,inactive

# Arranged by SMILES length (ascending): some entries from above.
row,Compound,Potency
2,Cc1nc(C(F)(F)F)ccc1C(=O)NN1CCOCC1,"inconclusive: 1.58 µM [activator, partial curve, poor fit]"
19,CCOC(=O)c1sc2nc(C)nc(NCCc3ccc(S(N)(=O)=O)cc3)c2c1C,"inconclusive: 0.501 µM [activator, full curve, poor fit]"
13,CCN(CC)S(=O)(=O)c1ccc(Cl)c(NC(=O)CSc2nnc(-c3cccs3)o2)c1,"inconclusive: 12.6 µM [activator, single point]"

# The results go on.

row,Compound,Potency
1,CCC(Cc1ccccc1)NC(=O)C1CCN(c2nn3c(=O)cc(C)nc3s2)CC1 (configuration not stated),"inconclusive: 1.78 µM [activator, full curve, poor fit]"
2,Cc1ccc(C)c(N(CC(=O)NC(C)(C)C)C(=O)CCC(=O)Nc2nccs2)c1,"inconclusive: 2 µM [activator, partial curve, poor fit]"
3,COC(=O)c1cc(-c2ccc(Br)cc2)n[nH]1,inactive
4,S=c1[nH]c2cc3c(cc2[nH]1)OCCO3,"inconclusive: 28.2 µM [activator, single point]"
5,CC(C)CN1C(=O)NC(NS(=O)(=O)c2ccc(N)cc2)(C(F)(F)F)C1=O (configuration not stated),inactive
6,O=C(c1cc(COc2ccc3ncccc3c2)on1)N1CCCC1,inactive
7,Cc1cc(Cl)ccc1OCc1cn2cccnc2n1,"inconclusive: 2 µM [activator, partial curve, poor fit]"
8,CCOc1ccc(N2C(=O)CC(Cc3ccccc3OC)C2=O)cc1 (configuration not stated),inactive
9,O=C1c2ccccc2-c2nnc(-c3ccc(F)cc3)cc21,inactive
10,Cc1nc2sc(C#N)c(N)c2c2c1CCCC2,"inconclusive: 11.2 µM [activator, partial curve, poor fit]"
11,CC1=NN(C(=O)CSCc2ccccc2)C(O)(c2ccccc2)C1 (configuration not stated),inactive
12,CN(C)/C=C1\SC(=S)N(c2ccc(F)cc2)C1=O,"inconclusive: 17.8 µM [activator, single point]"
13,c1ccc(-c2csc(-c3ccc(-c4csnn4)cc3)n2)cc1,"inconclusive: 5.01 µM [activator, single point]"
14,O=[N+]([O-])c1ccccc1NCCOc1ccccc1,"inconclusive: 1.58 µM [activator, partial curve, poor fit]"
15,CC(C)C[C@H](NC(=O)c1nc[nH]c1C(=O)N[C@@H](CCCCN)C(=O)OC(C)(C)C)C(=O)OC(C)(C)C,inactive
16,CCOc1ccc(CCNC(=O)CCCn2c(=O)c3cccn3c3cccnc32)cc1OCC,"inconclusive: 28.2 µM [activator, single point]"
17,COc1ccc(C(Nc2ccc(S(=O)(=O)N3CCOCC3)cc2)C(=O)NCCC(C)C)cc1OC (configuration not stated),"inconclusive: 0.562 µM [activator, partial curve, poor fit]"
18,CCCCCCn1c(=O)n2n(c1=O)C[C@]1(OC(=O)NCc3ccccc3)CN(S(=O)(=O)c3ccc(C)cc3)C[C@]1(O)C2,inactive
19,CC(=O)c1cccc(NC(=S)NC(=O)Cc2ccc(Cl)cc2)c1,"inconclusive: 3.98 µM [activator, single point]"
20,Cc1cccnc1NC(=S)Nc1ncccc1C,"inconclusive: 0.447 µM [activator, full curve, poor fit]"
21,COc1ccc2nc(NCc3ccccc3)[nH]c2c1,inactive
22,COc1ccc(S(=O)(=O)N(C)C)cc1NCC(=O)Nc1ccc(F)cc1F,inactive
23,Cc1cc(NS(=O)(=O)c2ccc(NC(=O)C(C)Oc3ccc4c(C)cc(=O)oc4c3)cc2)no1 (configuration not stated),inactive
24,Cc1cc(C(=O)N2CCCC(C(=O)c3cccc(C(F)(F)F)c3)C2)n[nH]1 (configuration not stated),inactive

row,Compound,Potency
1,C/C(=N\NC(=O)CC1N=C(Cc2ccccc2)NNC1=O)c1ccc(Br)cc1 (configuration not stated),"inconclusive: 5.01 µM [activator, single point]"
2,COCCCN(C(=O)c1ccccc1)c1nc(-c2ccc(OC)cc2)cs1,"inconclusive: 5.01 µM [activator, single point]"
3,CCOC(=O)c1nnn(-c2nonc2N)c1CSc1nnc(N)s1,"inconclusive: 0.355 µM [activator, full curve, poor fit]"
4,Cc1ccccc1NC(=O)Cc1nc(COC(=O)c2ncc(Cl)c(Cl)c2Cl)cs1,inactive
5,CC(C)CCSc1nc2ccccc2[nH]1,"inconclusive: 3.55 µM [activator, partial curve, poor fit]"
6,COc1cc(/C=N/N(C)C2=NS(=O)(=O)c3ccccc32)cc(OC)c1OC,"inconclusive: 22.4 µM [activator, single point]"
7,Cc1cc(N2CCOCC2)n2nc(C)c(-c3ccccc3Cl)c2n1,"inconclusive: 5.01 µM [activator, single point]"
8,COc1cccc(NC(=O)Cc2ccc3ccccc3c2)c1,"inconclusive: 10 µM [activator, partial curve, poor fit]"
9,Cc1cc2oc(=O)cc(CN3CCC(C)CC3)c2c(C)c1Cl,inactive
10,N#CC1=C2SCC(O)(c3ccccc3)N2C(=O)CC1c1ccccc1F (configuration not stated),inactive
11,COc1cccc(-c2cc(C(=O)N3CCN(S(=O)(=O)c4ccc(Br)cc4)CC3)[nH]n2)c1,"inconclusive: 28.2 µM [activator, single point]"
12,COc1ccc(OC)c(NC(=S)NCCSc2ccc(C)cc2)c1,inactive
13,COc1cccc(C(=O)Nc2nnc(Cc3ccc(OC)c(OC)c3)s2)c1,inactive
14,O=C(Cn1nnc(-c2ccc(N3CCOCC3)cc2)n1)OC1CCCCC1,"inconclusive: 0.501 µM [activator, full curve, poor fit]"
15,NC(=O)CSc1nnc(Cc2cccs2)n1C1CCCCC1,inactive
16,Cc1ccc2nc(-c3ccc(SCC(=O)Nc4nc(C)cs4)nc3)[nH]c2c1,inactive
17,O=C(Cc1ccc(Cl)cc1Cl)Nc1cccc(S(=O)(=O)Nc2ccccc2F)c1,inactive
18,Cc1cccc(Oc2ncnc(N)c2[N+](=O)[O-])c1C,inactive
19,O=C(Nc1cccc(S(=O)(=O)N2CCCC2)c1)c1cc(-c2ccccn2)nc2ccccc12,"inconclusive: 2.51 µM [activator, full curve, poor fit]"
20,COc1cccc(NC(=O)N2C3CCCC2CC(NC(=O)C2CC2)C3)c1 (configuration not stated),"inconclusive: 3.55 µM [activator, single point]"
21,Cc1ccccc1-n1nc(C(=O)c2cccs2)cc(-c2nc3ccccc3[nH]2)c1=N,inactive
22,COC(=O)c1ccc(Sc2ccccn2)c([N+](=O)[O-])c1,inactive
23,CCN1C(=O)/C(=C\c2ccncc2)SC1=S,"inconclusive: 2 µM [activator, single point]"
24,CC(C)NC(=O)c1[nH]nc2c1CCc1ccccc1-2,"inconclusive: 8.91 µM [activator, partial curve, poor fit]"

# Copied from the list:
# CCN1C(=O)/C(=C\c2ccncc2)SC1=S – Potency: inconclusive: 2 µM [activator, single point]
# Cc1ccccc1NC(=O)Cc1nc(COC(=O)c2ncc(Cl)c(Cl)c2Cl)cs1 – Potency: inactive
